Experimental data reported in patent US20220146528A1.
These are yes or no findings as the source states them, for the method shown. Some binding calls cover weakened binding; strength is not graded here.

Amino acid sequences for entries named in this document (tags omitted). Residues count along the entry.
UniProt Q03692, residues 479-680: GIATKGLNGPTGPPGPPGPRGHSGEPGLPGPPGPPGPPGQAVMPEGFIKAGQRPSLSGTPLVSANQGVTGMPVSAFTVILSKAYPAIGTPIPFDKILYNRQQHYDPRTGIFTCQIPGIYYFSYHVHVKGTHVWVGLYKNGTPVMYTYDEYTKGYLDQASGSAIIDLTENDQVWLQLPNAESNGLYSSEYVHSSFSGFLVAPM

How the values were obtained:
[1] = molecular target: collagen type X alpha-1 fragment carrying the N-terminus neo-epitope 479GIATKG, in human OA articular cartilage sections (human) (UniProt Q03692); assay: immunohistochemistry on human OA cartilage sections
[2] = molecular target: collagen type X alpha-1 fragment carrying the N-terminus neo-epitope 479GIATKG, in human OA articular cartilage sections (human) (UniProt Q03692); assay: immunohistochemistry on human OA cartilage sections (FIG. 3C legend)

binding [1]: binds | binding [2]: binds
B1: monoclonal antibody NB117-2F4 (antibody, mouse IgG2b, kappa, V domains shown)
VH: EVQLQESGPSLVKPSQTLSLTCSVTGDSITSGFWSWIRKFPGNKLEFMGYIKYSGDTYFNPSLKSRISITRDTSKNQYYLQLNSVTPEDTATYYCSDMDYWGQGTSVTVSS
VL: DVVMTQTPRSLPVSLGDQASISCRSSQSLVHNNGNTYLHWYLQMPGQSPKLLIYKVSNRFSGVPDRFSGSGSGTDFTLKISRVEAEDLGVYFCSQITHVPWTFGGGTKLEIKR
